{"sequences": {"note": "Sequences of proteins named here, by UniProt entry; tags and fusion partners are left off.", "UniProt Q9Y3R5": "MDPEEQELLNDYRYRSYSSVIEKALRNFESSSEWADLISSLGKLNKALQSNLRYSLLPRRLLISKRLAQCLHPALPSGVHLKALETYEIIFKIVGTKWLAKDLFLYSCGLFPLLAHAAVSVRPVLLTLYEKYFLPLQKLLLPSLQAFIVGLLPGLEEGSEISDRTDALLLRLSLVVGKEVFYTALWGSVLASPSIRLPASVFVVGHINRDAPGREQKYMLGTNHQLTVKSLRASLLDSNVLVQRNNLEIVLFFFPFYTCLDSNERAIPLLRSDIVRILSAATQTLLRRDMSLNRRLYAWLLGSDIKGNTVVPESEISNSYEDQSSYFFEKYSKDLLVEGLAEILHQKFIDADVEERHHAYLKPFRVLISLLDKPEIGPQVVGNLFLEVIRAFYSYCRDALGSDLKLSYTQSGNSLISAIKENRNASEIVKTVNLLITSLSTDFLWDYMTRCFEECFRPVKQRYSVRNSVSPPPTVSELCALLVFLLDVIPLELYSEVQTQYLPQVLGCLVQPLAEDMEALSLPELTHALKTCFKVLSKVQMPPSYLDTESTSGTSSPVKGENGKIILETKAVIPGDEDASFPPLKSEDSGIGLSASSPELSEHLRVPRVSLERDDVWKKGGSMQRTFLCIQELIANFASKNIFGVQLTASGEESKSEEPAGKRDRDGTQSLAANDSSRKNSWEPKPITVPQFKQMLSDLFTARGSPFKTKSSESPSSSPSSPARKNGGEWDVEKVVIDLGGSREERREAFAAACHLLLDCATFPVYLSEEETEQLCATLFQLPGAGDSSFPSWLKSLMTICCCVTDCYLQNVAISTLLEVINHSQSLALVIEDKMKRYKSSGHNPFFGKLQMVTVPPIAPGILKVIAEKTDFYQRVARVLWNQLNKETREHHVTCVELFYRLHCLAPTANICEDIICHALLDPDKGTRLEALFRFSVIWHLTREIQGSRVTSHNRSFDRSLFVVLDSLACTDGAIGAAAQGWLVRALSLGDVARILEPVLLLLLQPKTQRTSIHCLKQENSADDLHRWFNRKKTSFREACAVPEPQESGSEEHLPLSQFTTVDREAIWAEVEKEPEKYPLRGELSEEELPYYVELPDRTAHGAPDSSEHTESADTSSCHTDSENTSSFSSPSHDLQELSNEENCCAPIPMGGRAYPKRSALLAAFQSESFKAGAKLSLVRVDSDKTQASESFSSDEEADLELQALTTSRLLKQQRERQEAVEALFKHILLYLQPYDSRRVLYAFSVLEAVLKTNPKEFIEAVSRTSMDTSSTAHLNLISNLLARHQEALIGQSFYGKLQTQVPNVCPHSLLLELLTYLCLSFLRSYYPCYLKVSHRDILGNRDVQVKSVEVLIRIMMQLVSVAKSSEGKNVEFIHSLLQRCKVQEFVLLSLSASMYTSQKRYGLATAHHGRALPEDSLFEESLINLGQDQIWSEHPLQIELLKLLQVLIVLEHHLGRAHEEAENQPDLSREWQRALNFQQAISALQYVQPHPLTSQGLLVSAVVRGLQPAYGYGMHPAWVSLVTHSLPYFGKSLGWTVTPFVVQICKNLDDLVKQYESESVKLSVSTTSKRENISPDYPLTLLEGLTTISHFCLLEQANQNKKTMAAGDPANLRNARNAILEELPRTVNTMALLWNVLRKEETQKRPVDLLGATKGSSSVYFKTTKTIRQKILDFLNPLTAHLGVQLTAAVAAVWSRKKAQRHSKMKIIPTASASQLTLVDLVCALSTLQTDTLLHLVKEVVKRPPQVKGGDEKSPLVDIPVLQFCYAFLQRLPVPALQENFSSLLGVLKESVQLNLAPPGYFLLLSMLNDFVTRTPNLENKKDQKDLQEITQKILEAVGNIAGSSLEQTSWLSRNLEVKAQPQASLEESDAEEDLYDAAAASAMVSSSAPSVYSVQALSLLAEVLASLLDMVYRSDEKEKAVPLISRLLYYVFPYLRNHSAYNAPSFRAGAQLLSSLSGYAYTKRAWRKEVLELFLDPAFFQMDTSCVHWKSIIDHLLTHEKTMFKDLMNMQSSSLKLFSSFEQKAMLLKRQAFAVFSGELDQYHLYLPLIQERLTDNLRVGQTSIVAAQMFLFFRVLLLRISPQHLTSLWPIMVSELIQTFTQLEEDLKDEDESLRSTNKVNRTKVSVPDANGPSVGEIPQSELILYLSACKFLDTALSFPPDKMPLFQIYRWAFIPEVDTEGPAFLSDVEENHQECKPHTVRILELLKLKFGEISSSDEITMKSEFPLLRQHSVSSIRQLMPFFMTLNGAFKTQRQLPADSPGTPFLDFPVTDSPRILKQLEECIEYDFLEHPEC", "UniProt Q9H0B6": "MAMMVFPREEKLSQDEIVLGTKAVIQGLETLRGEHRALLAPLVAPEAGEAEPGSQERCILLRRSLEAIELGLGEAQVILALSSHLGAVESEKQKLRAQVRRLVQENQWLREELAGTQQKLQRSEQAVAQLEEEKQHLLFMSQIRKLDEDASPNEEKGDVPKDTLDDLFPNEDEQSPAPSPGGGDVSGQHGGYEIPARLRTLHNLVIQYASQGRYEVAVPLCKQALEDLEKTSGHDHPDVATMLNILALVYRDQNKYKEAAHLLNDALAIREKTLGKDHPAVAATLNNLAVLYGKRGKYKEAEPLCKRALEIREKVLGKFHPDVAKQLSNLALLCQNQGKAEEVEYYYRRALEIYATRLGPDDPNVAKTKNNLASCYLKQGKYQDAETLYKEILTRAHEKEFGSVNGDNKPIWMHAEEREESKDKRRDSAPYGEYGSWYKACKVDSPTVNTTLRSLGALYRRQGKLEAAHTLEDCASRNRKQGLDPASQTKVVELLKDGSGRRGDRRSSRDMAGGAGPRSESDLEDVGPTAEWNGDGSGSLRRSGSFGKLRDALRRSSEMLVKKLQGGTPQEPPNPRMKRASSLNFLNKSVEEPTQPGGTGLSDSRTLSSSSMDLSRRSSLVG", "UniProt P33176": "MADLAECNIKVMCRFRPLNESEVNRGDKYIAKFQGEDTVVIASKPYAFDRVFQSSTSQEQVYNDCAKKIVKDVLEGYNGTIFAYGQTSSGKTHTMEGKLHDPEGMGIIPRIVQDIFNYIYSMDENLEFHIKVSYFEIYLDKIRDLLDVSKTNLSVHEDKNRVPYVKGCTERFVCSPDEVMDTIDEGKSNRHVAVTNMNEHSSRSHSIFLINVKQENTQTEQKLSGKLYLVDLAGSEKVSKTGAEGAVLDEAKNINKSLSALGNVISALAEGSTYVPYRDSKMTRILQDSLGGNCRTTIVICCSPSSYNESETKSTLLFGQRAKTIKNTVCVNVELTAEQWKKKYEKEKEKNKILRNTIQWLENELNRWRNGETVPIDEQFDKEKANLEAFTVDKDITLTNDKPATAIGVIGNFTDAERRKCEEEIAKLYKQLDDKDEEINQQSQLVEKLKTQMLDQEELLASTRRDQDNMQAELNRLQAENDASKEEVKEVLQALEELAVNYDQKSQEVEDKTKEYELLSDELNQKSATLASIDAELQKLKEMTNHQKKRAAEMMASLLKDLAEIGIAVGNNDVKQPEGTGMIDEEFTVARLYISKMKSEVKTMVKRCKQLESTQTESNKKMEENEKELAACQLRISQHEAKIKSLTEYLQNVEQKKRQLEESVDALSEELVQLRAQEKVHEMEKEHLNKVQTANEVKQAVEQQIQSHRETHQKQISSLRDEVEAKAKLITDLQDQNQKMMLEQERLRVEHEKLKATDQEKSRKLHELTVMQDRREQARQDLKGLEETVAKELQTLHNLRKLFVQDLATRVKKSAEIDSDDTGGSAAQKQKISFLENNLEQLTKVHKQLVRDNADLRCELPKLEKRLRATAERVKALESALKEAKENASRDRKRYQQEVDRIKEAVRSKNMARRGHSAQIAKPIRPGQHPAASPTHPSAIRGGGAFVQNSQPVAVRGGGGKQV"}, "source": "paper PMC6642134", "about": "“Dopey1-Mon2 complex binds to dual-lipids and recruits kinesin-1 for membrane trafficking” (Nature Communications, 2019)", "molecules": {"B1": {"name": "Kif18a (endogenous) (protein, UniProt Q8NI77 1-898)", "chain": "MSVTEEDLCHHMKVVVRVRPENTKEKAAGFHKVVHVVDKHILVFDPKQEEVSFFHGKKTTNQNVIKKQNKDLKFVFDAVFDETSTQSEVFEHTTKPILRSFLNGYNCTVLAYGATGAGKTHTMLGSADEPGVMYLTMLHLYKCMDEIKEEKICSTAVSYLEVYNEQIRDLLVNSGPLAVREDTQKGVVVHGLTLHQPKSSEEILHLLDNGNKNRTQHPTDMNATSSRSHAVFQIYLRQQDKTASINQNVRIAKMSLIDLAGSERASTSGAKGTRFVEGTNINRSLLALGNVINALADSKRKNQHIPYRNSKLTRLLKDSLGGNCQTIMIAAVSPSSVFYDDTYNTLKYANRAKDIKSSLKSNVLNVNNHITQYVKICNEQKAEILLLKEKLKAYEEQKAFTNENDQAKLMISNPQEKEIERFQEILNCLFQNREEIRQEYLKLEMLLKENELKSFYQQQCHKQIEMMCSEDKVEKATGKRDHRLAMLKTRRSYLEKRREEELKQFDENTNWLHRVEKEMGLLSQNGHIPKELKKDLHCHHLHLQNKDLKAQIRHMMDLACLQEQQHRQTEAVLNALLPTLRKQYCTLKEAGLSNAAFESDFKEIEHLVERKKVVVWADQTAEQPKQNDLPGISVLMTFPQLGPVQPIPCCSSSGGTNLVKIPTEKRTRRKLMPSPLKGQHTLKSPPSQSVQLNDSLSKELQPIVYTPEDCRKAFQNPSTVTLMKPSSFTTSFQAISSNINSDNCLKMLCEVAIPHNRRKECGQEDLDSTFTICEDIKSSKCKLPEQESLPNDNKDILQRLDPSSFSTKHSMPVPSMVPSYMAMTTAAKRKRKLTSSTSNSSLTADVNSGFAKRVRQDNSSEKHLQENKPTMEHKRNICKINPSMVRKFGRNISKGNLR"}}, "key": {"[1]": {"target": "Dopey2 (endogenous) (human (endogenous in HEK293T)) (UniProt Q9Y3R5)", "experiment": "co-IP; endogenous proteins, HEK293T lysate; IP with Mon2, Dopey1 or Dopey2 antibody, immunoblot"}, "[2]": {"target": "Dopey1, full length, transfected (human) (UniProt B2RWN9)", "experiment": "co-IP; tagged proteins co-expressed in HEK293T, lysate in 40 mM HEPES pH 7.3, 100 mM NaCl, 0.1 or 1% Triton X-100; IP with antibody and Protein A/G beads or GFP-Trap beads, immunoblot"}, "[3]": {"target": "T1, Dopey1 extreme N-terminal region (DEN), Dopey1(1–148), transfected (human) (UniProt B2RWN9)", "T1 sequence": "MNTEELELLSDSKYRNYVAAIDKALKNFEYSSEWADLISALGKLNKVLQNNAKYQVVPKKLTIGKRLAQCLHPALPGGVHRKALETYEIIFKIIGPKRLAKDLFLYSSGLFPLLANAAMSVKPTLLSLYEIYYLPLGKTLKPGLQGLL", "experiment": "co-IP; tagged proteins co-expressed in HEK293T, lysate in 40 mM HEPES pH 7.3, 100 mM NaCl, 0.1 or 1% Triton X-100; IP with antibody and Protein A/G beads or GFP-Trap beads, immunoblot"}, "[4]": {"target": "Dopey1, full length, transfected (human) (UniProt B2RWN9)", "experiment": "co-sedimentation; liposome pull-down: base (PI) or PI4P liposomes with HEK293T lysates holding combinations of Flag-KLC2, GFP-Dopey1 and FP-Mon2, 1 h at room temperature, liposomes pelleted, immunoblot"}, "[5]": {"target": "KLC2 (kinesin light chain 2), transfected (UniProt Q9H0B6)", "experiment": "co-IP; tagged proteins co-expressed in HEK293T, lysate in 40 mM HEPES pH 7.3, 100 mM NaCl, 0.1 or 1% Triton X-100; IP with antibody and Protein A/G beads or GFP-Trap beads, immunoblot"}, "[6]": {"target": "T2, Mon2 extreme C-terminal region (MEC), cell-expressed (UniProt Q7Z3U7)", "T2 sequence": "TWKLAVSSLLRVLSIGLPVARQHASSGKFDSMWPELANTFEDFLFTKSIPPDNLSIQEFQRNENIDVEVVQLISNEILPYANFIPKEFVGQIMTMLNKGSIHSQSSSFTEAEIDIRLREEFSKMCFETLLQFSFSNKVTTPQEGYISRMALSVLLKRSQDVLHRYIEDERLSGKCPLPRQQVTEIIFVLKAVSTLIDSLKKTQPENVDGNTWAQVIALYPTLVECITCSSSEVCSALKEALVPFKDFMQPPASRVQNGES", "experiment": "co-IP; tagged proteins co-expressed in HEK293T, lysate in 40 mM HEPES pH 7.3, 100 mM NaCl, 0.1 or 1% Triton X-100; IP with antibody and Protein A/G beads or GFP-Trap beads, immunoblot"}, "[7]": {"target": "Mon2, full length, transfected (UniProt Q7Z3U7)", "experiment": "co-IP; tagged proteins co-expressed in HEK293T, lysate in 40 mM HEPES pH 7.3, 100 mM NaCl, 0.1 or 1% Triton X-100; IP with antibody and Protein A/G beads or GFP-Trap beads, immunoblot"}, "[8]": {"target": "Dopey1 (endogenous) (human (endogenous in HEK293T)) (UniProt B2RWN9)", "experiment": "co-IP; endogenous proteins, HEK293T lysate; IP with Mon2, Dopey1 or Dopey2 antibody, immunoblot"}}, "note": "No constants are given. Whether binding was seen depends on the method and setting. In cells and extracts the contact can be indirect. Some entries that bind do so weakly or less than the wild type.", "data": [{"molecule": "Kif5b, the heavy chain of kinesin-1 (endogenous) (from UniProt P33176 1-963)", "values": [{"measurement": "binding", "setting": "[1]", "value": "no binding"}]}, {"molecule": "KLC2 (kinesin light chain 2), transfected (from UniProt Q9H0B6 1-622)", "values": [{"measurement": "binding", "setting": "[2]", "value": "binds"}, {"measurement": "binding", "setting": "[3]", "value": "binds"}, {"measurement": "binding", "setting": "[4]", "value": "binds"}]}, {"molecule": "Dopey1, full length, transfected (from UniProt B2RWN9 1-2456)", "values": [{"measurement": "binding", "setting": "[5]", "value": "binds"}, {"measurement": "binding", "setting": "[6]", "value": "binds"}, {"measurement": "binding", "setting": "[7]", "value": "binds"}]}, {"molecule": "B1", "values": [{"measurement": "binding", "setting": "[8]", "value": "no binding"}]}]}
